For at least one compound, name, drawing or mass did not settle the structure.
Test system: heparinized bovine blood
Assay: Clot formation on dip-coated PET fabric disks in heparinized bovine blood
Details: PVDF-HFP/drug 90/10 dip-coated 15 mm PET fabric disks, ACT about 190 seconds, 37° C., various time points, images FIG. 5
Description: A solution of PVDF-HFP and DOAC was prepared in 80/20 acetone/DMSO (wt/wt). The PVDF-HFP to drug ratio was 90/10 (wt/wt) and the solution solids was 0.7%. The DOAC drugs evaluated were apixaban (Eliquis®), rivaroxaban (Xarelto®) and edoxaban (Savaysa®) 15 mm diameter polyethylene terephthalate (PET) fabric disks were dip coated into the polymer/drug solution at a dip speed of 5 mm/sec. The coated disks were dried for 30 min at 125° C. in a convection oven. The drug coated disks and PVDF-HFP only control disks were placed in cups containing heparinized bovine blood adjusted to an active clotting time (ACT) of about 190 seconds using protamine. The cups were placed on an orbital shaker incubator at 37° C. and disks were removed at various time points and imaged. The disks were then dried and weighed to determine clot weight. […] The clot weights provided in FIG. 6 verify the minimal amount of thrombus formed on the DOAC treated fabric.

CN1CCc2nc(C(=O)N[C@@H]3C[C@@H](C(=O)N(C)C)CC[C@@H]3NC(=O)C(=O)Nc3ccc(Cl)cn3)sc2C1 [edoxaban]
thrombus (clots) compared to the PVDF-HFP coated control: significantly less thrombus
